Reference: US20120129791A1, “STIMULATOR OF GENITAL, SEXUAL AND REPRODUCTIVE FUNCTION” (<<BIO PEPTID>> COMPANY LIMITED, priority 2009, published 2012)
Not every detail of the peptide structures is certain; ends, links or a residue may be inferred. Where no end group is shown, it is not given here.

Legend:
[1] = test system: healthy women; experiment: Quantified SFW scale of sexual function, Group I healthy women, course of heptapeptide; type: in vivo, human
[2] = test system: women with a pronounced decrease and absence of libido; experiment: Quantified SFW scale, Group IV women with decreased or absent libido; type: in vivo, human
[3] = Group I (n=8), SFW scale, before treatment 4.0

Substance: TKPRPGP [Thr-Lys-Pro-Arg-Pro-Gly-Pro]
- Time of effect in reinforcing libido ([1]; Group I): in the first twenty-four hours
- Onset of orgasm, mean time for onset of effect ([1]; Group I (n=8)): 5.8 days
- Reinforcement of the effect on the quantified SFW scale, all indicators ([1]; Group I (n=8)): 1 score
- Level of sexual activity, after treatment ([1]; Group I (n=8), SFW scale, before treatment 3.8): 4.7 points
- Attitude toward sexual activity, after treatment [1, 3]: 5.0 points
- General physical state after sexual acts, after treatment [1, 3]: 4.7 points
- Libido, after treatment [1, 3]: 5.0 points
- Lubrication, after treatment [1, 3]: 5.0 points
- Mood after sexual acts, after treatment [1, 3]: 5.0 points
- Onset of orgasm, after treatment [1, 3]: 5.0 points
- Attitude toward sexual activity score 5 (intense enjoyment): patients after treatment, n (%) ([1]; Group I (n=8), before 0 (0%)): 8 (100%)
- General physical state after sex acts score 5 (satisfaction and fatigue): patients after treatment, n (%) ([1]; Group I (n=8), before 0 (0%)): 8 (100%)
- Level of sexual activity score 5 (daily): patients after treatment, n (%) ([1]; Group I (n=8), before 0 (0%)): 6 (75%)
- Libido score 6 (several times a day): patients after treatment, n (%) ([1]; Group I (n=8), before 0 (0%)): 0 (0%)
- Lubrication score 5 (sets in rapidly): patients after treatment, n (%) ([1]; Group I (n=8), before 0 (0%)): 8 (100%)
- Mood after sex acts score 5 (feeling of gratitude to man): patients after treatment, n (%) ([1]; Group I (n=8), before 0 (0%)): 6 (75%)
- Onset of orgasm score 5 (more than 80% of the sex acts): patients after treatment, n (%) ([1]; Group I (n=8), before 0 (0%)): 8 (100%)
- Level of sexual activity score 3 (monthly): patients after treatment, n (%) ([1]; Group I (n=8), before 2 (25%)): 0 (0%)
- Libido score 4 (weekly): patients after treatment, n (%) ([1]; Group I (n=8), before 4 (50%)): 0 (0%)
- Libido score 5 (daily): patients after treatment, n (%) ([1]; Group I (n=8), before 4 (50%)): 8 (100%)
- Level of sexual activity score 4 (weekly): patients after treatment, n (%) ([1]; Group I (n=8), before 6 (75%)): 2 (25%)
- Attitude toward sexual activity score 4 (enjoyment depends on menesis): patients after treatment, n (%) ([1]; Group I (n=8), before 8 (100%)): 0 (0%)
- General physical state after sex acts score 4 (sensation of a release of arousal): patients after treatment, n (%) ([1]; Group I (n=8), before 8 (100%)): 0 (0%)
- Lubrication score 4 (depends on presence of attraction): patients after treatment, n (%) ([1]; Group I (n=8), before 8 (100%)): 0 (0%)
- Mood after sex acts score 4 (recognition of duty fulfilled): patients after treatment, n (%) ([1]; Group I (n=8), before 8 (100%)): 2 (25%)
- Onset of orgasm score 4 (in half of the sex acts): patients after treatment, n (%) ([1]; Group I (n=8), before 8 (100%)): 0 (0%)
- Attitude toward sexual activity: patients with onset of effect, n (%) ([1]; Group I (n=8), day 1): 4 (50%)
- General physical state after sexual acts: patients with onset of effect, n (%) ([1]; Group I (n=8), day 1): 4 (50%)
- Level of sexual activity: patients with onset of effect, n (%) ([1]; Group I (n=8), day 1): 4 (50%)
- Lubrication: patients with onset of effect, n (%) ([1]; Group I (n=8), day 1): 4 (50%)
- Mood after sexual acts: patients with onset of effect, n (%) ([1]; Group I (n=8), day 1): 4 (50%)
- Onset of orgasm: patients with onset of effect, n (%) ([1]; Group I (n=8), day 1): 4 (50%)
- Libido: patients with onset of effect, n (%) ([1]; Group I (n=8), day 1 of drug administration): 8 (100%)
- Attitude toward sexual activity: patients with onset of effect, n (%) ([1]; Group I (n=8), day 5): 4 (50%)
- General physical state after sexual acts: patients with onset of effect, n (%) ([1]; Group I (n=8), day 5): 4 (50%)
- Level of sexual activity: patients with onset of effect, n (%) ([1]; Group I (n=8), day 5): 4 (50%)
- Lubrication: patients with onset of effect, n (%) ([1]; Group I (n=8), day 5): 4 (50%)
- Mood after sexual acts: patients with onset of effect, n (%) ([1]; Group I (n=8), day 5): 4 (50%)
- Onset of orgasm: patients with onset of effect, n (%) ([1]; Group I (n=8), day 5): 8 (100%)
- Libido: patients with onset of effect, n (%) ([1]; Group I (n=8), day 5 of drug administration): 8 (100%)
- Attitude toward sexual activity: patients with onset of effect, n (%) ([1]; Group I (n=8), day 10): 8 (100%)
- General physical state after sexual acts: patients with onset of effect, n (%) ([1]; Group I (n=8), day 10): 8 (100%)
- Level of sexual activity: patients with onset of effect, n (%) ([1]; Group I (n=8), day 10): 8 (100%)
- Lubrication: patients with onset of effect, n (%) ([1]; Group I (n=8), day 10): 8 (100%)
- Mood after sexual acts: patients with onset of effect, n (%) ([1]; Group I (n=8), day 10): 8 (100%)
- Onset of orgasm: patients with onset of effect, n (%) ([1]; Group I (n=8), day 10): 8 (100%)
- Libido: patients with onset of effect, n (%) ([1]; Group I (n=8), day 10 of drug administration): 8 (100%)
- Attitude toward sexual activity: patients with onset of effect, n (%) ([1]; Group I (n=8), day 15): 8 (100%)
- General physical state after sexual acts: patients with onset of effect, n (%) ([1]; Group I (n=8), day 15): 8 (100%)
- Level of sexual activity: patients with onset of effect, n (%) ([1]; Group I (n=8), day 15): 8 (100%)
- Lubrication: patients with onset of effect, n (%) ([1]; Group I (n=8), day 15): 8 (100%)
- Mood after sexual acts: patients with onset of effect, n (%) ([1]; Group I (n=8), day 15): 8 (100%)
- Onset of orgasm: patients with onset of effect, n (%) ([1]; Group I (n=8), day 15): 8 (100%)
- Libido: patients with onset of effect, n (%) ([1]; Group I (n=8), day 15 of drug administration): 8 (100%)
- Libido, mean time for onset of effect ([1]; Group I, (n = 4)): 1.0 days
- Onset of orgasm, share of sex acts ([1]; Group I, after a course of administration (a score of 5), before: half of all sex acts): 80-100%
- Women in whom sex acts occurred daily ([1]; Group I, after course): 75%
- Patients with presence of an effect ([1]; Group I, at the end of the course): all the patients
- Patients in whom the effect had begun ([1]; Group I, by the end of the first twenty-four hours): half the patients
- Time of effect on the orgasmic stage of the copulation cycle ([1]; Group I, day of the treatment): ≤ 10 days
- Day of the fastest effect (increase in lubrication and onset of orgasm) ([2]; Group IV): ~5 days
- Day on which the remaining indicators of sexual function were reinforced ([2]; Group IV): ~10 days
- Level of sexual activity, effect ([2]; Group IV): did not increase the level of sexual activity
- Libido, after treatment ([2]; Group IV (n=8), SFW scale, before treatment 2.5): 4.0 points
- Attitude toward sexual activity score 4 (enjoyment depends on menesis): patients after treatment, n (%) ([2]; Group IV (n=8), before 0 (0%)): 4 (50%)
- Attitude toward sexual activity score 5 (intense enjoyment): patients after treatment, n (%) ([2]; Group IV (n=8), before 0 (0%)): 0 (0%)
- General physical state after sex acts score 4 (sensation of a release of arousal): patients after treatment, n (%) ([2]; Group IV (n=8), before 0 (0%)): 4 (50%)
- General physical state after sex acts score 5 (satisfaction and fatigue): patients after treatment, n (%) ([2]; Group IV (n=8), before 0 (0%)): 0 (0%)
- Level of sexual activity score 4 (weekly): patients after treatment, n (%) ([2]; Group IV (n=8), before 0 (0%)): 4 (50%)
- Level of sexual activity score 5 (daily): patients after treatment, n (%) ([2]; Group IV (n=8), before 0 (0%)): 0 (0%)
- Libido score 2 (yearly): patients after treatment, n (%) ([2]; Group IV (n=8), before 0 (0%)): 0 (0%)
- Libido score 4 (weekly): patients after treatment, n (%) ([2]; Group IV (n=8), before 0 (0%)): 4 (50%)
- Libido score 5 (daily): patients after treatment, n (%) ([2]; Group IV (n=8), before 0 (0%)): 0 (0%)
- Libido score 6 (several times a day): patients after treatment, n (%) ([2]; Group IV (n=8), before 0 (0%)): 0 (0%)
- Lubrication score 4 (depends on presence of attraction): patients after treatment, n (%) ([2]; Group IV (n=8), before 0 (0%)): 4 (50%)
- Lubrication score 5 (sets in rapidly): patients after treatment, n (%) ([2]; Group IV (n=8), before 0 (0%)): 0 (0%)
- Mood after sex acts score 4 (recognition of duty fulfilled): patients after treatment, n (%) ([2]; Group IV (n=8), before 0 (0%)): 4 (50%)
- Mood after sex acts score 5 (feeling of gratitude toward man): patients after treatment, n (%) ([2]; Group IV (n=8), before 0 (0%)): 0 (0%)
- Onset of orgasm score 2 (only during erotic dreams): patients after treatment, n (%) ([2]; Group IV (n=8), before 0 (0%)): 2 (25%)
- Onset of orgasm score 4 (in half of the sex acts): patients after treatment, n (%) ([2]; Group IV (n=8), before 0 (0%)): 4 (50%)
- Onset of orgasm score 5 (more than 80% of the sex acts): patients after treatment, n (%) ([2]; Group IV (n=8), before 0 (0%)): 0 (0%)
- General physical state after sex acts score 2 (complete physical indifference): patients after treatment, n (%) ([2]; Group IV (n=8), before 2 (25%)): 2 (25%)
- Libido score 1 (entirely absent): patients after treatment, n (%) ([2]; Group IV (n=8), before 2 (25%)): 2 (25%)
- Lubrication score 2 (rarely emerges): patients after treatment, n (%) ([2]; Group IV (n=8), before 2 (25%)): 2 (25%)
- Mood after sex acts score 2 (escape from obligation): patients after treatment, n (%) ([2]; Group IV (n=8), before 2 (25%)): 2 (25%)
- Onset of orgasm score 1 (never experienced orgasm): patients after treatment, n (%) ([2]; Group IV (n=8), before 2 (25%)): 0 (0%)
- General physical state after sex acts score 3 (unfulfilled arousal): patients after treatment, n (%) ([2]; Group IV (n=8), before 6 (75%)): 2 (25%)
- Libido score 3 (monthly): patients after treatment, n (%) ([2]; Group IV (n=8), before 6 (75%)): 2 (25%)
- Lubrication score 3 (with protracted stimulation): patients after treatment, n (%) ([2]; Group IV (n=8), before 6 (75%)): 2 (25%)
- Mood after sex acts score 3 (complete indifference): patients after treatment, n (%) ([2]; Group IV (n=8), before 6 (75%)): 2 (25%)
- Onset of orgasm score 3 (single occurrences): patients after treatment, n (%) ([2]; Group IV (n=8), before 6 (75%)): 2 (25%)
